Assay results reported in PMC7605537.
Results are given in words; binding and its absence hold for the method and conditions named. Binding seen in cells or lysates may run through a third protein. Some binding calls cover weakened binding; strength is not graded here. Where a sequence is shown, tags or fusion partners need not be part of it.

Protein sequences, listed by entry. Tags and fused reporters are not part of them.
UniProt P63208: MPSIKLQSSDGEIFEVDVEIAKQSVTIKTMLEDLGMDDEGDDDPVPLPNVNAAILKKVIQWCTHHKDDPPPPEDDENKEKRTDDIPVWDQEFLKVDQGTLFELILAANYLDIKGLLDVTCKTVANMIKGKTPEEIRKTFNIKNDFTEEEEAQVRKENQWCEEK

Target: T1, HA-FBXO2 (F-box protein 2) (UniProt Q9UK22)
T1 sequence: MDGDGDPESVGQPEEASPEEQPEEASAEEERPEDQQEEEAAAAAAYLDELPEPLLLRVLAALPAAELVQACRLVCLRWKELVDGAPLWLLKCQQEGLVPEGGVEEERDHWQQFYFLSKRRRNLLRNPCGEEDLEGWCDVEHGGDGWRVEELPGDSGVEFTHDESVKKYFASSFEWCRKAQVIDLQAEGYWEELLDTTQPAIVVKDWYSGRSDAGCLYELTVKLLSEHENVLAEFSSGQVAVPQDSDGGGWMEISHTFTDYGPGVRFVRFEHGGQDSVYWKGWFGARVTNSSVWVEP
Assay: co-IP; I1061T human fibroblasts electroporated with HA-FBXO2, 48 h later treated with 2 mM LLOMe for 2 h (or vehicle); cells cross-linked with DSP, lysed in 1% NP-40 buffer pH 7.4; immunoprecipitated with HA antibody or Ctrl IgG; blots for LAMP2 and Skp1

- binding: binds
Substance: Skp1 (S phase kinase-associated protein 1) (from UniProt P63208 1-163)
